Record: PubChem BioAssay AID743121 (NCATS, 2013)

Test: 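Partners whose loss is lethal together with topoisomerase I blockade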 (primary screen)
Cell system: MDA-MB-231 cells, a human breast cancer line
Knock-down reagent: single siRNA against human genes, 20 nM siRNA (0.8 pmol per well)
Duration: 120 h (drug added 48 h after transfection, read 72 h later)
Conditions: camptothecin 20 nM (about EC30) for 72 h; vehicle 0.1% DMSO in parallel plates
Detection: 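CellTiter-Glo ATP signal, scaled to control siRNA as percent viability; sensitisation given as log2 of untreated divided by camptothecin-treated viability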
Reading the numbers: log2 vehicle/camptothecin viability: higher = stronger sensitisation to camptothecin; viability with camptothecin and viability without drug: higher = more viable cells
Active means: 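Active genes have an RSA gene-level p-value below 0.001, computed from the ratios of their separate siRNAs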
The deposit covers about 26,000 reagents; below is an unselected part. In the full data, 167 (0.63%) were called active. 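Calls are per gene from RSA p-values that are not deposited; an individual active-marked siRNA can sensitise only weakly.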 Reagents against one gene are numbered here.

| gene | siRNA no. | log2 vehicle/camptothecin viability | viability with camptothecin (% of control) | viability without drug (% of control) | activity call |
| --- | --- | --- | --- | --- | --- |
| PHF6 | 1 | -0.221 | 102 | 87.3 | inactive |
| PHF6 | 2 | -0.159 | 120 | 108 | inactive |
| PHF6 | 3 | -0.34 | 85.2 | 67.3 | inactive |
| PHF6 | 4 | -0.308 | 114 | 91.9 | inactive |
| OR8B8 | 1 | -0.227 | 113 | 96.7 | inactive |
| OR8B8 | 2 | -0.547 | 62.2 | 42.6 | inactive |
| OR8B8 | 3 | 0.631 | 19.9 | 30.8 | inactive |
| OR8B8 | 4 | -0.026 | 62.5 | 61.4 | inactive |
| IDS | 1 | -0.502 | 92.5 | 65.3 | inactive |
| IDS | 2 | -0.545 | 66 | 45.2 | inactive |
| IDS | 3 | -0.484 | 42.5 | 30.4 | inactive |
| IDS | 4 | 0.314 | 65.9 | 82 | inactive |
| C8G | 1 | -0.0422 | 68.1 | 66.1 | inactive |
| C8G | 2 | -0.208 | 78 | 67.5 | inactive |
| C8G | 3 | -0.103 | 106 | 98.6 | inactive |
| GABARAP | 1 | -0.0845 | 101 | 95.6 | inactive |
| GABARAP | 2 | -0.202 | 27.1 | 23.6 | inactive |
| GABARAP | 3 | -0.0429 | 50.6 | 49.1 | inactive |
| GABARAP | 4 | -0.196 | 85.4 | 74.5 | inactive |
| DNMT1 | 1 | -0.0779 | 74.6 | 70.7 | inactive |
| DNMT1 | 2 | 0.0551 | 102 | 106 | inactive |
| DNMT1 | 3 | 0.0922 | 95.6 | 102 | inactive |
| DNMT1 | 4 | -0.148 | 93.8 | 84.7 | inactive |
| FIRRM | 1 | -0.126 | 103 | 94.7 | inactive |
| FIRRM | 2 | -0.118 | 63.2 | 58.2 | inactive |
| FIRRM | 3 | -0.574 | 53.9 | 36.2 | inactive |
| FIRRM | 4 | -0.192 | 92.3 | 80.8 | inactive |
| ADGRG1 | 1 | -0.355 | 92 | 71.9 | inactive |
| ADGRG1 | 2 | -0.533 | 98.5 | 68.1 | inactive |
| ADGRG1 | 3 | -0.468 | 62.9 | 45.5 | inactive |
| ADGRG1 | 4 | -0.305 | 102 | 82.9 | inactive |
| WNT4 | 1 | -0.216 | 103 | 88.7 | inactive |
| WNT4 | 2 | -0.245 | 51.9 | 43.8 | inactive |
| WNT4 | 3 | 0.119 | 15.8 | 17.1 | inactive |
| WNT4 | 4 | -0.185 | 96.1 | 84.5 | inactive |
| TMC5 | 1 | -0.0444 | 43.5 | 42.2 | inactive |
| TMC5 | 2 | -0.369 | 76.5 | 59.2 | inactive |
| TMC5 | 3 | 2.15 | 12.4 | 54.8 | inactive |
| TMC5 | 4 | -0.406 | 82.9 | 62.6 | inactive |
| ZEB2 | 1 | 0.00523 | 80.9 | 81.2 | inactive |
| ZEB2 | 2 | 0.0599 | 98.8 | 103 | inactive |
| ZEB2 | 3 | -0.395 | 127 | 96.9 | inactive |
| ZEB2 | 4 | 0.073 | 97.5 | 103 | inactive |
| TAPBPL | 1 | -0.11 | 89.4 | 82.9 | inactive |
| TAPBPL | 2 | 1.11 | 41.1 | 88.9 | inactive |
| TAPBPL | 3 | -0.24 | 46.7 | 39.6 | inactive |
| TAPBPL | 4 | -0.0511 | 57.6 | 55.6 | inactive |

Targets listed so far whose gene name starts with I or i (4):
| gene | siRNA no. | log2 vehicle/camptothecin viability | viability with camptothecin (% of control) | viability without drug (% of control) | activity call |
| --- | --- | --- | --- | --- | --- |
| IDS | 1 | -0.502 | 92.5 | 65.3 | inactive |
| IDS | 2 | -0.545 | 66 | 45.2 | inactive |
| IDS | 3 | -0.484 | 42.5 | 30.4 | inactive |
| IDS | 4 | 0.314 | 65.9 | 82 | inactive |
